Data as given in PubChem BioAssay AID1224827 (NIAID, 2016).
Here is one part, drawn at random, of about 3,800 reagents tested. Of all reagents, about 2,200 (57%) are marked active. 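Active means a strong reporter change in either direction; calls are per siRNA, not per gene; qiagen siRNAs gave weaker effects.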 Reagents against one gene are numbered here.

Aim: 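Identify regulators of the macrophage TNF-alpha response to bacterial LPS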 (follow-up of hits)
Cells: RAW264.7 G9 mouse macrophage reporter clone
Reagents: single siRNA against mouse genes, 100 nM siRNA
Timing: siRNA for 2 days, then LPS about 16 h
Challenge: bacterial lipopolysaccharide (LPS), 10 ng/ml, cells fixed after overnight (about 16 h) stimulation
Read-out: 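Imaged nuclear TNF reporter intensity, background removed, scaled per plate and to non-targeting control wells, as z-scores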
Reading the numbers: TNF reporter z-score, mean and TNF reporter z-score: higher = stronger Tnf promoter reporter signal; gene median z, three same-vendor siRNAs: higher = stronger Tnf reporter signal for the gene
Hit rule: 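Active siRNA: replicate-mean z-score of 2 or more, or -2 or less; no calls for control wells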

gene knocked down	reagent no.	TNF reporter z-score, mean	gene median z, three same-vendor siRNAs	TNF reporter z-score, repeat 1	TNF reporter z-score, repeat 2	activity call
Gdi2	1	13.1	-1.7	8.48	17.8	active
Gdi2	2	-1.7	-1.7	-2.01	-1.39	inactive
Gdi2	3	-3.45	-1.7	-3.89	-3.01	active
Gdi2	4	3.42	1.76	6.54	0.3	active
Gdi2	5	1.32	1.76	4.12	-1.48	inactive
Gdi2	6	1.06	1.76	3.23	-1.11	inactive
Tmem116	1	0.722	-1.98	0.393	1.05	inactive
Tmem116	2	-2.4	-1.98	-1.37	-3.43	active
Tmem116	3	-3.6	-1.98	-4.6	-2.6	active
Tmem116	4	2.76	-0.118	4.37	1.15	active
Tmem116	5	-1	-0.118	-0.654	-1.35	inactive
Tmem116	6	-0.641	-0.118	0.418	-1.7	inactive
Klhdc3	1	-1.58	-1.98	-2.12	-1.05	inactive
Klhdc3	2	-2.15	-1.98	-1.85	-2.45	active
Klhdc3	3	-2.06	-1.98	-3.22	-0.898	active
Klhdc3	4	4.15	0.841	6.69	1.62	active
Klhdc3	5	3.26	0.841	6.46	0.0612	active
Klhdc3	6	-0.408	0.841	-0.162	-0.654	inactive
Paox	1	-1.71	-3.88	-1.8	-1.61	inactive
Paox	2	-3.97	-3.88	-3.74	-4.19	active
Paox	3	-4.23	-3.88	-4.43	-4.02	active
Paox	4	0.272	-1.19	1.83	-1.29	inactive
Paox	5	-0.543	-1.19	0.417	-1.5	inactive
Paox	6	-1.6	-1.19	-1.1	-2.1	inactive
Prmt5	1	-2.21	-2.49	-2.42	-1.99	active
Prmt5	2	-2.93	-2.49	-4.43	-1.42	active
Prmt5	3	-3.22	-2.49	-3.89	-2.56	active
Prmt5	4	4.16	0.736	7.74	0.576	active
Prmt5	5	2.78	0.736	5.08	0.487	active
Prmt5	6	0.623	0.736	0.896	0.351	inactive
Heatr5a	1	-0.916	-3.23	-0.92	-0.913	inactive
Heatr5a	2	-3.23	-3.23	-3.11	-3.36	active
Heatr5a	3	-3.87	-3.23	-3.45	-4.28	active
Heatr5a	4	4.82	0.837	9.32	0.311	active
Heatr5a	5	0.728	0.837	2.08	-0.624	inactive
Heatr5a	6	0.126	0.837	1.36	-1.11	inactive
Or4a39	1	-1.53	-4.96	-1.51	-1.56	inactive
Or4a39	2	-5.28	-4.96	-4.65	-5.9	active
Or4a39	3	-5.63	-4.96	-5.27	-5.99	active
Or4a39	4	4.85	1.71	7.38	2.33	active
Or4a39	5	2.75	1.71	4.84	0.662	active
Or4a39	6	0.0562	1.71	1.1	-0.983	inactive
Cpeb1	1	-2.08	-3.67	-2.99	-1.18	active
Cpeb1	2	-3.89	-3.67	-4.43	-3.35	active
Cpeb1	3	-4.44	-3.67	-3.99	-4.89	active
Cpeb1	4	2.82	-0.611	5.28	0.36	active
Cpeb1	5	0.84	-0.611	3.26	-1.58	inactive
Cpeb1	6	-3.72	-0.611	-2.84	-4.61	active
Adsl	1	-1.19	-2.98	-1.78	-0.59	inactive
Adsl	2	-2.98	-2.98	-2.76	-3.2	active
Adsl	3	-4.43	-2.98	-3.63	-5.24	active
Adsl	4	3.42	2	5.24	1.61	active
Adsl	5	2.3	2	3.71	0.882	active
Adsl	6	0.377	2	2.39	-1.64	inactive
Dnajc27	1	-0.369	-2.39	1.08	-1.82	inactive
Dnajc27	2	-2.39	-2.39	-1.97	-2.81	active
Dnajc27	3	-4.05	-2.39	-4.66	-3.43	active
Dnajc27	4	4.01	0.186	5.85	2.18	active
Dnajc27	5	0.186	0.186	1.43	-1.05	inactive
Dnajc27	6	-2.53	0.186	-3.33	-1.73	active

Sorted by “TNF reporter z-score, mean” (ascending): 5 of the entries above
gene knocked down	reagent no.	TNF reporter z-score, mean	gene median z, three same-vendor siRNAs	TNF reporter z-score, repeat 1	TNF reporter z-score, repeat 2	activity call
Or4a39	3	-5.63	-4.96	-5.27	-5.99	active
Cpeb1	1	-2.08	-3.67	-2.99	-1.18	active
Or4a39	6	0.0562	1.71	1.1	-0.983	inactive
Or4a39	5	2.75	1.71	4.84	0.662	active
Or4a39	4	4.85	1.71	7.38	2.33	active
